Consider two substances from US20040241797A1.

Protein sequences, listed by entry. Tags and fused reporters are not part of them.
UniProt Q15717: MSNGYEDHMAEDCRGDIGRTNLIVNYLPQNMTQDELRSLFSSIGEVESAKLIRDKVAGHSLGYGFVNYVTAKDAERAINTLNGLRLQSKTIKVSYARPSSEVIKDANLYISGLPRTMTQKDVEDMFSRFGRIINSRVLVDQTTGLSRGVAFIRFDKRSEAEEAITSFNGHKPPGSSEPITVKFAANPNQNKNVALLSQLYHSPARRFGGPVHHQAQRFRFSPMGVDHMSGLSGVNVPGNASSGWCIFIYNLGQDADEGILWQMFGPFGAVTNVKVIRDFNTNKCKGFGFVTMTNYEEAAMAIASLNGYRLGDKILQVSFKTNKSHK
UniProt Q15365: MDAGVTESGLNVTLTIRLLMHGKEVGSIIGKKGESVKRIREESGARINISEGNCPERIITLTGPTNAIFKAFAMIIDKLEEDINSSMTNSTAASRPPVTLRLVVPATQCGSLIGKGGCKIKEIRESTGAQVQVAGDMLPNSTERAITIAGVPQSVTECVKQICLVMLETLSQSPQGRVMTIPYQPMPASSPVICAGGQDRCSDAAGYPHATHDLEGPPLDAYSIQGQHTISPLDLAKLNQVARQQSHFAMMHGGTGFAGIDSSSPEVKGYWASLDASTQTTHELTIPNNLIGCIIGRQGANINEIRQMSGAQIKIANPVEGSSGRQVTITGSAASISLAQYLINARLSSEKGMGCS

Assay [1] deals with GST-αCP1A (human). Briefly: GST pull-down, SDS-PAGE (figure legend).
The target of assay [2] is GST-αCP1A (human). Put plainly: GST pull-down, radiolabeled in vitro translated HuR on GST-αCP1A glutathione beads, SDS-PAGE.
Assay [3] has as its target HuR bait (Matchmaker Two-Hybrid System 3) (human) (UniProt Q15717). Briefly: yeast two-hybrid screen, HuR as bait against hypoxic HEK 293 cDNA bank.

No constants are given. Whether binding was seen depends on the method and setting. For part of these data: In cells and extracts the contact can be indirect. Some results given as binding are weak or reduced against the parent protein; the word gives no strength.

For the substance “HuR (radiolabeled, in vitro transcribed-translated from pcDNA3-HuR) (from UniProt Q15717 1-326)”, the binding result with GST-αCP1A (human) [1] and in the assay with GST-αCP1A (human) [2] was “binds” each time.

“αCP1 clones of the hypoxic HEK 293 cDNA bank (two-hybrid prey) (from UniProt Q15365 1-356)”: the binding result in assay [3] is on record as “binds”.
